This passage reports binding results from US20060257407A1 (Janssen / Centocor, published 2006).

By UniProt entry, the sequences of proteins in these tests, tags left out. Where a name states a change or a piece, a line headed by the entry shows the natural chain unless it says otherwise.
UniProt P08887: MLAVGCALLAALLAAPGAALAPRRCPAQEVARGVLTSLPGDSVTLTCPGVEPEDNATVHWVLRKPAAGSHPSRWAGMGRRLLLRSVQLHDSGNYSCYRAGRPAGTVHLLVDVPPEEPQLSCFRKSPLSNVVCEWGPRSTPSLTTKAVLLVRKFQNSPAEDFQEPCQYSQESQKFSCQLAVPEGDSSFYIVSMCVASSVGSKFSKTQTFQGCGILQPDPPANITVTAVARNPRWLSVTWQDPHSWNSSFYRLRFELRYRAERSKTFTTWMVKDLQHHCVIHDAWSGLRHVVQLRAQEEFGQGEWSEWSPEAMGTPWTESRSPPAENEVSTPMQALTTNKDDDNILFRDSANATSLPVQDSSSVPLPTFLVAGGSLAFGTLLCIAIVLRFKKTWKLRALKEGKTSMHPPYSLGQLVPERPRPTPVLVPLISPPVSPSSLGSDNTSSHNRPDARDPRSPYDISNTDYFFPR
UniProt P05231: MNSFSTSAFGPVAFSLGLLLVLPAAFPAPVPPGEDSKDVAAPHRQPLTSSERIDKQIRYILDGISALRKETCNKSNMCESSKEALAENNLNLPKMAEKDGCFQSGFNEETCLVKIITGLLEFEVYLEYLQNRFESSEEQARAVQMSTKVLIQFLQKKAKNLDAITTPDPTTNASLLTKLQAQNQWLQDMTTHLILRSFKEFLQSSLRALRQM

One test deals with T1, IL-6/sIL-6R complex (human, UniProt P08887 20-358, limits assumed).
T1 construct: Formed on the plate: sIL-6R coated at 10 ug/ml, then human IL-6 added at 200 ng/ml; also called sIL-6/sIL-6R complex; IL-6/IL-6R complex
Kind of test: EIA: sIL-6R coated, 200 ng/ml human IL-6, antibody dilutions from 10 ug/ml, anti-human IgG-HRP. How it is done:
Costar EIA plates (Corning/Costar, Acton, Mass.) (Catalog # 9018) were coated with sIL-6R (10 μg/ml in PBS, 100 μl/well) overnight at 4° C. The plates were washed with 0.15M saline containing 0.02% (v/v) Tween 20 and wells were blocked with 1% (w/v) BSA in PBS, 200 μl/well for one hour at room temperature. The wells were washed again then in the sequential format incubated with 200 ng/ml human IL-6 (100 μl/well) in PBS for one hour at room temperature. Antibody was added to all wells in 10-fold serial dilutions from a starting concentration of 10 μg/ml in 100 μl/well for one hour at room temperature. After washing, the wells were incubated with goat anti-human IgG (H+L)-HRP-linked, (10 μg/ml in PBS) for 30 minutes at room temperature. The wells were washed and 100 μl/well of citrate-phosphate substrates solution (0.1M Citric Acid and 0.2M Sodium Phosphate, 0.01% H₂O₂ and 1 mg/ml OPD) was added for 15 minutes at room temperature. The reaction was stopped by addition of 25 μl/well of 4N sulfuric acid and the OD₄₉₀ was read via an automated ELISA plate reader (Molecular Devices Spectromax Plus, Sunnyvale, Calif.).
In addition, AME-A9, AME-A16, AME-18a, AME-20b, AME-22a, and AME-23a can detect IL-6 bound to sgp80 (sIL-6R) in a dose dependent manner using EIA. […] However, preincubation of IL-6 and any of these anti hIL-6 monoclonal antibodies precludes the ability of sIL-6R to bind IL-6.

Another test deals with recombinant human IL-6 (human, UniProt P05231 30-212). Kind of test: ELISA: IgG dilutions captured on goat anti-human kappa, biotinylated IL-6 at 200 ng/ml, NeutrAvidin-alkaline phosphatase, O.D. 560 after 15 min. How it is done: The ELISA generally used Costar 3366 microtiter plates coated with a goat anti-human kappa antibody. Dilutions of Fab (or IgG) were incubated in the coated wells for 1 hr at 22° C. The wells were then washed with PBS, 0.1% Tween 20 and biotinylated IL-6 at 200 ng/ml was added for 1 hour. After washing, an alkaline phosphatase conjugate of NeutrAvidin was added and incubated for 1 hour at 22° C. A colorimetric substrate was added after extensive washing and the bound IL-6 was determined. A variation of this ELISA included an extended wash step in a beaker of PBS, 0.01% BSA at 37° C. after the biotinylated IL-6 incubation, e.g., an 18 hour extended wash step.

Results are given in words; binding and its absence hold for the method and conditions named. Some entries that bind do so weakly or less than the wild type.

B1: AME-22a (antibody, V domains shown)
VH: EVQLVESGGGLVQPGGSLRLSCAASGFQFSPFAMSWVRQAPGKGLEWVAKISPGGSWTYYPDTDTGRFTISRDNAKNSLYLQMNSLRAEDTAVYYCARQLWGYYALDFWGQGTTVTVSS
VL: EIVLTQSPATLSLSPGERATLSCSASYSVSYMYWYQQKPGQAPRLLIYDFSNLASGIPARFSGSGSGTDFTLTISSLEPEDFAVYYCMQWSGYPYTFGGGTKVEIK
notes: Tested as IgG; also called 150
Turning to B1, the binding entry with IL-6/sIL-6R complex and with recombinant human IL-6 was “binds” in each case.
